Data published in paper PMC12040169 (PLOS Biology, 2025).
The list shows a part of the results.

Tested on: T1, CTL2-GFP (C. trachomatis L2/434/Bu, GFP-expressing)
T1 construct: L2/434/Bu, GFP-expressing
Parameters: species or system HeLa; Intracellular C. trachomatis growth in HeLa cells, bulk GFP fluorescence relative to DMSO
Details: bulk GFP, single well; 28.5 h, 10 µM; inhibitor

Row | SMILES | % of control remaining
1 | O=C(O)COC(=O)C1C(c2ccccc2)C(C(=O)O)C1c1ccccc1 (centres unmarked) [CBK263881] | 147.294%
2 | COc1cccc(OCc2cnc(-c3ccc(Cl)cc3)c(-c3cccc(CNC(C)=O)c3)c2)c1 [CBK165225] | 130.896%
3 | COc1cccc(C(=O)N2CCC(Cc3ccccc3-c3ccccc3)(C(N)=O)CC2)c1 [CBK285729] | 114.634%
4 | C[C@H](Oc1cncc(N2CCNCC2)n1)c1ccccc1Cl [CBK172341G] | 81.0891%
5 | c1coc(CN2CCC(c3ccc4c(c3)OCO4)CC2)c1 [CBK284001] | 71.6442%
6 | COC(=O)c1c(NC(=O)C2CC=CCC2C(=O)O)sc2c1CCC(C)C2 (centres unmarked) [CBK262655] | 111.662%
7 | Cc1nc(C)c(C(=O)N2CCCc3ccccc32)s1 [CBK200345] | 121.113%
8 | Cc1cnc(CNS(=O)(=O)c2ccc(F)cc2)cn1 [CBK050489] | 139.256%
9 | CC(C)C(=O)N1C[C@H]2NC(=O)c3ccccc3C(=O)[C@@]2(C)C1 [CBK281658] | 86.9703%
10 | CN(C)S(=O)(=O)c1cccc(C(=O)NCc2ccco2)c1 [CBK270135] | 140.703%
11 | Nc1nc2cc3c(cc2[nH]1)OCO3 [CBK023191] | 88.3128%
12 | COc1cccc(N(CC(=O)Nc2ccccc2Cl)S(=O)(=O)c2ccc(C)cc2)c1 [CBK263791] | 116.588%
13 | COc1ccc([C@H]2CN(Cc3ccccc3)C[C@@H]2NC(=O)CCc2ccco2)cc1 [CBK286477] | 110.011%
14 | O=C(COc1ccc(Br)cc1C(=O)O)Nc1ccc(F)cc1 [CBK286671] | 110.645%
15 | Nc1cc2c(cc1Cl)C(=O)NC2=O [CBK028783] | 101.414%
16 | CCN(CC)CCN(Cc1ccc2c(c1)OCO2)C(=O)Nc1ccc2[nH]ccc2c1 [CBK159037] | 103.025%
17 | Cn1c(=O)c2ncn(CC(=O)Nc3ccc(N4CCN(Cc5ccccc5)CC4)cc3)c2n(C)c1=O [CBK266875] | 131.862%
18 | CC(=O)N1CCC(N2C[C@H](O)C[C@H]2c2nc(-c3cccc([N+](=O)[O-])c3)no2)CC1 [CBK288846] | 156.093%
19 | Cc1c(Cc2ccccc2)c(N2CCN(C/C=C/c3ccccc3)CC2)n2c(nc3ccccc32)c1C#N [CBK263112] | 112.019%
20 | Nc1ccc(-c2cc(N)n(-c3ccc(Oc4ccccc4)c(S(=O)(=O)O)c3)n2)cc1 [CBK261563] | 120.095%
21 | CN(Cc1nccs1)C(=O)c1cccc(OCC(=O)N2CCCCC2)c1 [CBK307478] | 111.485%
22 | Cc1ccc(S(=O)(=O)Nc2ccsc2C(=O)Nc2ccc(F)cc2)cc1 [CBK004571] | 102.113%
23 | CC1CC(/N=C2/NCCS2)CC(C)(C)C1 (centres unmarked) [CBK020293] | 131.869%
24 | CC1(C(C)(O)C(F)F)OC(NC2C3CC4CC(C3)CC2C4)=NC1=O (centres unmarked) [CBK137190] | 107.581%
25 | CN(C)C(=O)CSc1nnc(-c2cccc3ccccc23)n1-c1ccccc1 [CBK266044] | 167.782%
26 | Nc1ccc(C(=O)Nc2ccc(-c3nc4ccc(NC(=O)c5ccc(N)cc5)cc4[nH]3)cc2)cc1 [CBK261147] | 75.2432%

Row | SMILES | % of control remaining
27 | CC(=O)Nc1ccc(Nc2nc(-c3ccc(O)cc3)cn3ccnc23)cc1 [CBK037992] | 124.11%
28 | COC(=O)N1CC2(CCCCC2NCC2CCCO2)c2ccccc21 (centres unmarked) [CBK083541T] | 110.392%
29 | COc1ccc(-c2csc(Nc3cccc(C(=O)O)c3)n2)cc1 [CBK286924] | 115.924%
30 | O=C(O)c1ccc(Oc2ccc3c(c2)C(=O)N(c2nccs2)C3=O)cc1 [CBK261200] | 110.544%
31 | Cn1ccc(C(=O)N2CCCC3(C/C=C/Cc4ccccc4OCC(=O)NC3)C2)cc1=O (centres unmarked) [CBK292179] | 142.616%
32 | O=C(O)c1cccc(-c2ccc(Nc3cccc(NC(=O)c4ccncc4)c3)nc2)c1 [CBK037776] | 184.994%
33 | O/N=C1\CC2(CCCCC2)c2ccccc21 [CBK013318] | 132.25%
34 | CC(=O)Nc1ccc(CN[C@@H]2CCC[C@H]2Cc2cc(C)no2)cc1 [CBK285459] | 150.997%
35 | CC(C)n1cc(C(=O)N2CCCC(c3cc4ncccc4[nH]3)C2)cn1 (centres unmarked) [CBK283419] | 124.373%
36 | Cn1nnnc1SCCNC(=O)Nc1cccc(CN2CCCCC2)c1 [CBK306872] | 111.423%
37 | O=S(=O)(Nc1ccc(Cl)c(Cl)c1)c1ccc(Cl)c(Cl)c1 [CBK044838] | 88.0139%
38 | COCCN1CCC(CNC(=O)Nc2cc(C)ccc2F)C1 (centres unmarked) [CBK304631] | 110.57%
39 | COCCCn1c(=O)[nH]c2ncc(-c3cnc(OC)nc3)nc21 [CBK064618] | 100.055%
40 | CCCc1nn(CC(=O)N(CC)CC)c(=O)c2cc3ccsc3n12 [CBK284192] | 76.4211%
41 | O=C(O)c1cccc(NCC(=O)c2ccccc2)c1 [CBK287163] | 120.356%
42 | COc1ccc(CNC(=O)CN2CCCC(Cn3cncn3)C2)cc1 (centres unmarked) [CBK305339] | 128.654%
43 | COc1cc(Nc2cccc(-c3ccc4ccccc4c3)n2)cc(OC)c1OC [CBK037612] | 98.2705%
44 | Cc1cccnc1NC(=O)C1CCCN1S(=O)(=O)c1ccc(Cl)cc1 (centres unmarked) [CBK269914] | 147.42%
45 | CC(=O)N1CCC(C(=O)NC(=O)NCc2ccc3c(c2)CCO3)CC1 [CBK034837] | 95.1019%
46 | Cc1n[nH]cc1-c1nsc(Nc2ccccc2)n1 [CBK113680] | 66.101%
47 | CCOc1cccc(CNc2ccc(N3CCOCC3)c(C(=O)O)c2)c1 [CBK269973] | 92.3929%
48 | COc1cc(CN2Cc3cccc(C(=O)O)c3C2=O)cc(OC)c1OC [CBK291227] | 108.186%
49 | COCCn1c(SCc2ccc([N+](=O)[O-])cc2)nc2c([nH]c3ccccc32)c1=O [CBK294415] | 162.137%
50 | CN1CCC[C@H]1C(=O)N1CCCC2(CCN(Cc3ccccc3)C2)C1 (some centres unmarked) [CBK136901] | 79.8198%
51 | O=C(O)c1[nH]c2ccccc2c1NS(=O)(=O)c1cc(F)c(Br)cc1F [CBK049885] | 136.556%
52 | COc1ccc(NC(=O)N[C@H]2[C@H](O)[C@@H](N3CCOCC3)[C@@H]3OC[C@H]2O3)cc1 [CBK288820] | 126.035%

From entry 31 up to 45, as listed above:
Row | SMILES | % of control remaining
31 | Cn1ccc(C(=O)N2CCCC3(C/C=C/Cc4ccccc4OCC(=O)NC3)C2)cc1=O (centres unmarked) [CBK292179] | 142.616%
32 | O=C(O)c1cccc(-c2ccc(Nc3cccc(NC(=O)c4ccncc4)c3)nc2)c1 [CBK037776] | 184.994%
33 | O/N=C1\CC2(CCCCC2)c2ccccc21 [CBK013318] | 132.25%
34 | CC(=O)Nc1ccc(CN[C@@H]2CCC[C@H]2Cc2cc(C)no2)cc1 [CBK285459] | 150.997%
35 | CC(C)n1cc(C(=O)N2CCCC(c3cc4ncccc4[nH]3)C2)cn1 (centres unmarked) [CBK283419] | 124.373%
36 | Cn1nnnc1SCCNC(=O)Nc1cccc(CN2CCCCC2)c1 [CBK306872] | 111.423%
37 | O=S(=O)(Nc1ccc(Cl)c(Cl)c1)c1ccc(Cl)c(Cl)c1 [CBK044838] | 88.0139%
38 | COCCN1CCC(CNC(=O)Nc2cc(C)ccc2F)C1 (centres unmarked) [CBK304631] | 110.57%
39 | COCCCn1c(=O)[nH]c2ncc(-c3cnc(OC)nc3)nc21 [CBK064618] | 100.055%
40 | CCCc1nn(CC(=O)N(CC)CC)c(=O)c2cc3ccsc3n12 [CBK284192] | 76.4211%
41 | O=C(O)c1cccc(NCC(=O)c2ccccc2)c1 [CBK287163] | 120.356%
42 | COc1ccc(CNC(=O)CN2CCCC(Cn3cncn3)C2)cc1 (centres unmarked) [CBK305339] | 128.654%
43 | COc1cc(Nc2cccc(-c3ccc4ccccc4c3)n2)cc(OC)c1OC [CBK037612] | 98.2705%
44 | Cc1cccnc1NC(=O)C1CCCN1S(=O)(=O)c1ccc(Cl)cc1 (centres unmarked) [CBK269914] | 147.42%
45 | CC(=O)N1CCC(C(=O)NC(=O)NCc2ccc3c(c2)CCO3)CC1 [CBK034837] | 95.1019%

(next part)

Row | SMILES | % of control remaining
53 | N#Cc1c(NC(=O)c2ccc(C(=O)O)cc2C(=O)O)sc2c1CCCC2 [CBK262722] | 129.473%
54 | CCOc1ccc(C(=O)C2=C(O)C(=O)N(CCN(C)C)C2c2cccnc2)cc1Cl (centres unmarked) [CBK266585] | 134.748%
55 | CC(=O)N[C@H]1C[C@@H](Cc2cc(CN3CCN(c4ccccc4)CC3)on2)C1(C)C [CBK289241] | 117.541%
56 | c1ccc2[nH]c(CCCCCc3nc4ccccc4[nH]3)nc2c1 [CBK267694] | 111.16%
57 | O=C(O)CSc1nnc(C2COc3ccccc3O2)n1-c1ccccc1 (centres unmarked) [CBK263832] | 84.9732%
58 | CCOC(=O)C1(C2CCCCC2)CCN(C(=O)C(c2ccccc2)c2ccccc2)CC1 [CBK136943] | 94.7881%
59 | O=[N+]([O-])c1cc(/C=N/Nc2nc(N3CCOCC3)nc(N3CCOCC3)n2)c(O)c([N+](=O)[O-])c1 [CBK261237] | 93.6936%
60 | O=C(COc1ccc([N+](=O)[O-])cc1)Nc1ccc2oc(-c3ccc(Br)cc3)nc2c1 [CBK263444] | 88.4654%
61 | Nc1ncc(-c2ccc(C(=O)O)cc2)nc1-c1ccc(C(=O)N2CCOCC2)cc1 [CBK084518] | 113.632%
62 | NC(=O)C1(Cc2cccc(-c3cccs3)c2)CCN(C(=O)CCc2ccccc2)CC1 [CBK285782] | 131.357%
63 | FC(F)(F)c1cc(NCCC2CCCCN2)cc(C(F)(F)F)c1 (centres unmarked) [CBK016963] | 113.249%
64 | O=C(Nc1ncccn1)C1CCCCC1 [CBK027567] | 160.292%
65 | Fc1ccc(-c2cncc(NCCCN3CCOCC3)n2)c(F)c1 [CBK065867] | 119.185%
66 | CCN(Cc1ccc(C#N)cc1F)C(=O)Nc1cnn(CC)c1 [CBK305702] | 98.7733%
67 | Cc1cc(C)n(C(C)CNC(=O)C(C)Cn2cccn2)n1 (centres unmarked) [CBK281639] | 127.285%
68 | CCC(=O)N1CCCc2cc(C(O)CN3CCCCC3)ccc21 (centres unmarked) [CBK282130] | 140.013%
69 | COc1cccc(COc2nccnc2/C=C/c2ccccc2)c1OC [CBK106888] | 100%
70 | CC1CCCCC1NC(=O)CSc1nnc(CN2CCOCC2)n1C (centres unmarked) [CBK266662] | 124.464%
71 | COc1ccc(-c2cc(C(=O)NCc3nc4ccccc4[nH]3)cnc2-c2ccccc2)cn1 [CBK037579] | 240.872%
72 | CCN(CC)C(=O)C1CCCN(C(=O)c2ccc3c(c2)COC(C2CCN(C(=O)OC(C)(C)C)CC2)O3)C1 (centres unmarked) [CBK173279] | 109.368%
73 | CCc1ccc(NC(=O)CNc2cc(C)ccc2OC)cc1 [CBK297553] | 116.73%
74 | COc1ccc(C=Cc2cc(C(=O)O)c3ccccc3n2)cc1OC(F)F [CBK296953] | 130.68%
75 | O=C1N[C@@H]2CCN(S(=O)(=O)c3cccs3)[C@@H]2C(=O)N1c1ccc(F)cc1 [CBK289326] | 143.579%
76 | COc1ccc(CN(C)CCN(C)C)c(O)c1 [CBK261915] | 90.7239%
77 | N=C(N)SCc1ncccc1O [CBK278318C] | 101.88%
